Test system: Aβ1–42
Assay: Brain Aβ1–42 total amount by mouse ELISA kit
Format: in vivo
Conditions: mice, Aβ1–42 icv model, K3 10 mg/kg po, donepezil 15 mg/kg po
Experimental: In the Aβ1–42 oligomeric damage experiment, all mice were sacrificed after the behavioural research was completed, and the brains were collected to assess the total content of Aβ1–42 using a mouse ELISA kit. Each brain tissue sample was thoroughly homogenised in a grinder with 10 times PBS (pH = 7.4 ± 0.1) before being centrifuged for 5 min at 5000×g. The supernatant was separated for use. The detection technique followed the directions exactly, and the standard curve was created. Brain tissue Aβ1–42 content was calculated according to the linear regression equation. All values were expressed as mean ± SEM using GraphPadPrism8.0 software.

## COc1cc2c(cc1OC)C(=O)C(CC1CCN(Cc3ccccc3)CC1)C2 (stereo not shown) [Donepezil, reference compound]
  decrease of Aβ1–42 peptides in brain: 14.5%

Reference: PMC9448382, “Fluorosulfate-containing pyrazole heterocycles as selective BuChE inhibitors: structure-activity relationship and biological evaluation for the treatment of Alzheimer’s disease” (Journal of Enzyme Inhibition and Medicinal Chemistry, 2022)
